These results are taken from article PMC6746865, “Identification of telomerase RNAs in species of the Yarrowia clade provides insights into the co-evolution of telomerase, telomeric repeats and telomere-binding proteins”.

The target of this series is T1, Tay1p (YlTay1p) (Yarrowia lipolytica) (UniProt Q6C9I6).
T1 sequence (looked up, limits assumed): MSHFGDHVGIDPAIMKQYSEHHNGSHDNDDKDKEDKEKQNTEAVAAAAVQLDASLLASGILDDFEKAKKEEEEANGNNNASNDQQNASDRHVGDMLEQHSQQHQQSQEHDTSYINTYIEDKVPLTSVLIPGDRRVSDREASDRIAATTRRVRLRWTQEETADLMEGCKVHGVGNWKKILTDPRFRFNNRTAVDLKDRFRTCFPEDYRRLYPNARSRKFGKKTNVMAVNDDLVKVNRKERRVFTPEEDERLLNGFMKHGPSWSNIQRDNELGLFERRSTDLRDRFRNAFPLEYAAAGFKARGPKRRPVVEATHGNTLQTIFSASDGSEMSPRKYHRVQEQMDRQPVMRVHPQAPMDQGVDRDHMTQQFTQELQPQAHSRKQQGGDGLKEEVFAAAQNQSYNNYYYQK
Kind of series: EMSA. To be noted: 20 mM HEPES-NaOH pH 7.3, 100 mM NaCl, 16 nM dsDNA probe (3-fold molar excess of unlabelled C strand used in annealing), 10 min at room temperature, recombinant protein, label: 5'-32P on G strand. (A gel shift assay detects complexes by their altered migration in electrophoresis.)

Construct, isoform or probe ends are uncertain for at least one entry. The comparison behind a weaker result is the experiment's own reference, which may not be listed here. Tags and fusion partners may be left off the protein sequences shown. At least one verdict rests on a figure or table, not on a statement of the authors.

As to “TTAGCCAGGGTTAGCCAGGG (double strand) [Y. phangngensis telomeric probe CphaTEL (2 repeats)]”, the binding result (affinity comparable to N1) is on record as “binds”.

As for “TTAGCGAGGGTTAGCGAGGG (double strand) [Y. bubula telomeric probe YbubTEL (2 repeats)]”, for the setting “affinity comparable to N1”, the binding result is “binds”.

Take “TTAGGCAGGGTTAGGCAGGG (double strand) [Y. alimentaria telomeric probe CaliTEL (2 repeats)]”: the binding result (affinity comparable to N1) is “binds”.

As to “TTATACAGGGTTATACAGGG (double strand) [Y. yakushimensis telomeric probe YyakTEL (2 repeats)]”, the binding result (affinity comparable to N1) was “binds”.

Take “TTGACGAGAGTTGACGAGAG (double strand) [C. hispaniensis telomeric probe ChisTEL (2 repeats)]”: for the setting “slightly decreased affinity vs N1”, the binding result was “binds more weakly”.
